Results on one molecule are retold here after patent US20170355953A1 (OSAKA UNIVERSITY, published 2017).

No constants are given. Whether binding was seen depends on the method and setting. In cells and extracts the contact can be indirect. Binding can be weak; no strength is given.

The test addresses Wnt5a fused with a TARGET tag at the N-terminus (W-Wnt5a). In words: co-purification with W-Wnt5a on P20.1-sepharose, SDS-PAGE.

B1: bovine afamin (from fetal calf serum in the culture medium) (protein, UniProt G3MYZ3 22-604, looked up)
chain: LPTQPQDVDDVRITQKFIDDNIGYITIIAFAQYIQEASFEEVEMLVKAMTEYRDKCLADRTLPECSKLANEVLLENICAMEGLPQKYNFSHCCHKVDFERRLCFFHNKKADIGLLPPLPTLDPEEKCQTYKNNRESFLNNYVYEVSRRNPFVFAPTLLTVAARFEEMTKTCCEEQEKANCFQTKAEPFIYYLKALSSYQKNACRALMKFGRQILQSINIAILSQKFPKIGFKQLTSLLEDVSSKYDGCCEGDVVQCIRGRSKVMSHICSKQDSISSKIKDCCEKKIPERGECIIYSNKDDRPNDLSLREAKFIESDNVCEKRDADQANFMAEFLYEYSRRHPELSTPELLRIAKVYKDLLKECCNMENPPECYRHAENRFNETTEKSLKIVQRECEHFQNLGKDDLKYHYLINLTKLAPQLSTEELTFLGKEMVMALTTCCTLSEEFACVDNLVDLVLGELCGINENRNINPAVDHCCKTNFAFRRSCFESLEADKTYVPPSTSQGLFTFHADLCQAHNEELQRKKDRFLVNLVKLKPELAGEELWSLLADFTNVVEKCCKAQEPEACFKEESPKLAAKSQAA
Take B1: the binding entry is recorded as “binds”.
